In publication PMC7819943, “Rice protein-binding microarrays: a tool to detect cis-acting elements near promoter regions in rice”:
Some of the results follow.

Amino acid sequences for entries named in this document (tags omitted).
UniProt Q0JBA9, entry or part of it: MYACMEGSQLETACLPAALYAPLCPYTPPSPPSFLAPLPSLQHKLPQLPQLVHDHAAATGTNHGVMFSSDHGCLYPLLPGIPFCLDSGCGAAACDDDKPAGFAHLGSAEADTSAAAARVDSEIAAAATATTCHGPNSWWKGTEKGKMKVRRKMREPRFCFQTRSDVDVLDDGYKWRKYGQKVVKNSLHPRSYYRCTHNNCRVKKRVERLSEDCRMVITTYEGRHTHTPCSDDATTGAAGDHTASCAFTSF

Target: OsWRKY34 (Oryza sativa, UniProt Q0JBA9 1-250)
Test: protein-binding microarray (RPBM); PBS, 2% BSA, 51.3 ng/ul salmon testes DNA, 50 uM zinc acetate, 200 nM TF, 25 C, 1 h; high values mean tight binding
Conditions: protein: recombinant; tags: N-terminal polyhistidine and DsRed monomer fusion (pET32a); label: CyDye5-dUTP incorporated in the synthesized complementary strand; 3' TTTTT single-stranded linker to array surface; dsDNA, one strand shown
Summary of the method: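 Binding signal here means per-feature fluorescence intensity in arbitrary units. The values were read on an Axon 4000B scanner after a custom Agilent array, double-stranded by primer extension with Cy5-dUTP, was incubated with 200 nM protein at 25 °C for 1 h in PBS with 2% BSA, salmon testes DNA and 50 µM zinc acetate, then washed. The proteins were transcription factors with an N-terminal polyhistidine tag and DsRed, expressed in E. coli BL21-CodonPlus and purified on Ni–NTA.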

Sequence	binding signal
AGAACTCCCTCCGTCCCGTTTTTAGCGCACTCATCTTTTTCGGAGTCACCTAGTGCAG	12500 fluorescence intensity (a.u.)
TTACCTCGCGTACCCTCGCACCCGTCTCCCGCAGACAGATCGGAGTCACCTAGTGCAG	8480 fluorescence intensity (a.u.)
GACCACACCAAAACTGCAATCACCTCACTCATCCAGTCATCGGAGTCACCTAGTGCAG	9150 fluorescence intensity (a.u.)
GTTTCTAATGCTCAGAGCCTGCAGCTTCTCCAGCCACTCACGGAGTCACCTAGTGCAG	9340 fluorescence intensity (a.u.)
ACATACAACTATTTTCGAAATGTTTATTTATCTATAAAGTCGGAGTCACCTAGTGCAG	8530 fluorescence intensity (a.u.)
CTCCCTCGCCCACCGCCGCCGGCGCCGCCTCCCTCCCATGCGGAGTCACCTAGTGCAG	10100 fluorescence intensity (a.u.)
AACTTGTTGGATTCTTGCATGCCTCTGGGCCTGAAAAATACGGAGTCACCTAGTGCAG	9200 fluorescence intensity (a.u.)
TCGATTCTAACTCCAGATTTGTAGTTCATTCCCGTCATTTCGGAGTCACCTAGTGCAG	8350 fluorescence intensity (a.u.)
GTATGTATTCTTAGGGATAGTTTGTGCGTGTTACGAGTGACGGAGTCACCTAGTGCAG	8700 fluorescence intensity (a.u.)
ATCGATGTGTTTTTTTATAATTTGTCGGTTGTTGCTTAATCGGAGTCACCTAGTGCAG	10800 fluorescence intensity (a.u.)
TCTGTTATAACGATTATATGTTAGAGTGCATGCATTTTATCGGAGTCACCTAGTGCAG	9070 fluorescence intensity (a.u.)
CATACCAATTTACCTGTTGACTAAGGTCGTGTCATTTTAGCGGAGTCACCTAGTGCAG	9600 fluorescence intensity (a.u.)
CCCATTTCGCATCCGGTTCTAGCTTTCCTTGGCTTCCCATCGGAGTCACCTAGTGCAG	8170 fluorescence intensity (a.u.)
CTCCTATAAAATCCCGACGAAACCACCGCCGCGCAACCTCCGGAGTCACCTAGTGCAG	8410 fluorescence intensity (a.u.)
ACACACCCGCGCCGTTCCTGCGCGCCTTGTTCGCGTCCATCGGAGTCACCTAGTGCAG	9180 fluorescence intensity (a.u.)
CGACTAGTTACTGCGGCTCTTTCAACCTGTCTCACTGTATCGGAGTCACCTAGTGCAG	8180 fluorescence intensity (a.u.)
ATTTTGACCTTGGATTGTTATCGTTACAACTGGATCCTAGCGGAGTCACCTAGTGCAG	8790 fluorescence intensity (a.u.)
ACCACGCCAAGCCGACGCCGTGCCGTGCACCTCTTTCCTCCGGAGTCACCTAGTGCAG	11400 fluorescence intensity (a.u.)
ACGTGTTCACTTTATTGCCAACATACATGCTACCCAATTTCGGAGTCACCTAGTGCAG	9060 fluorescence intensity (a.u.)
GACTTGGGGTGGGGTGGAGCGGGAGATCCATCCAAGATAGCGGAGTCACCTAGTGCAG	12600 fluorescence intensity (a.u.)
TTGGGTTCTTGATATAACTGGTGGAAATGGCGAGGTAATTCGGAGTCACCTAGTGCAG	11000 fluorescence intensity (a.u.)

Sequence	binding signal
ATGTATTGGTGTTATGCCTTCTGTTTATTTTATTTGCTCCCGGAGTCACCTAGTGCAG	8730 fluorescence intensity (a.u.)
ATTTGTTTCTAAATATTTGACACCGTTGACTTTTTAGCACCGGAGTCACCTAGTGCAG	24100 fluorescence intensity (a.u.)
TCCCATCCACCTCCATCGCCGCCGCCGCCGCGTATGCGCCCGGAGTCACCTAGTGCAG	8650 fluorescence intensity (a.u.)
AGCTGGCTAAATCATATTTCCAAAGTCTCTCTCGTCTCTCCGGAGTCACCTAGTGCAG	8510 fluorescence intensity (a.u.)
TCTTGCTCTCCACAAACTTTCCATCACCACCTTTCGGGCGCGGAGTCACCTAGTGCAG	8180 fluorescence intensity (a.u.)
GTGGGAGGGGACGTGGGTGGGCAAAGTCCACAAGAAAGATCGGAGTCACCTAGTGCAG	8240 fluorescence intensity (a.u.)
CAACCCACACACCACCACACAGATCACAACAGCAAGTTGTCGGAGTCACCTAGTGCAG	8160 fluorescence intensity (a.u.)
CATCATGCTCACCGGTAACTACCCGATATTACCTCCCTATCGGAGTCACCTAGTGCAG	10800 fluorescence intensity (a.u.)
ATGCTTGTTTTCTCATCAGGTCATTCATTGAAGACTCACACGGAGTCACCTAGTGCAG	8280 fluorescence intensity (a.u.)
ATCTCCAATTTATTTTTGCTTCTAGCAAAGTTTTTTTTTTCGGAGTCACCTAGTGCAG	8750 fluorescence intensity (a.u.)
GGGCATATGCGTGCGTGATAATCGGGGAGGAGCGGTAATACGGAGTCACCTAGTGCAG	8390 fluorescence intensity (a.u.)
ATCTACCCCTGCGATGTGTCAAATTCCAAGCCAAGGCCCTCGGAGTCACCTAGTGCAG	8540 fluorescence intensity (a.u.)
CGCTACCTCACCAACACCATATAATCAAATTCTAGTAGTTCGGAGTCACCTAGTGCAG	8060 fluorescence intensity (a.u.)
CTGCGGCAGTGTTCTTTTTTTTTTTACACGCGTTTTTTTTCGGAGTCACCTAGTGCAG	10800 fluorescence intensity (a.u.)
GGTACGGTCTTACTTCTATAGTTCTATTCATGTATCTATTCGGAGTCACCTAGTGCAG	10300 fluorescence intensity (a.u.)
GTTTCGTGGTGGTTGCTGGGCTTTTCGTTGGCGTGGGTGGCGGAGTCACCTAGTGCAG	11500 fluorescence intensity (a.u.)
CTCCTCTCATCAACAGAATCATCTGACCATCTTTATATCACGGAGTCACCTAGTGCAG	9190 fluorescence intensity (a.u.)
AGATTTTGGCCGCGCGCTGGATACGGCTAAGCAATTCGATCGGAGTCACCTAGTGCAG	8230 fluorescence intensity (a.u.)
TAAGTTCCTTTGTTTGGGTGGGGAAATATATCACACCAGACGGAGTCACCTAGTGCAG	8060 fluorescence intensity (a.u.)
CCTCCATTTTCGGACTCCGGTGCTCTCTCCTCCTTTGCGTCGGAGTCACCTAGTGCAG	8450 fluorescence intensity (a.u.)
TTACTACTGCATTATCAAGTGTATCTTGCCATGTACTTCCCGGAGTCACCTAGTGCAG	12100 fluorescence intensity (a.u.)

As entered above.
Value for CTCCCTCGCCCACCGCCGCCGGCGCCGCCTCCCTCCCATGCGGAGTCACCTAGTGCAG under binding signal: 10100 fluorescence intensity (a.u.)
Value for GTATGTATTCTTAGGGATAGTTTGTGCGTGTTACGAGTGACGGAGTCACCTAGTGCAG under binding signal: 8700 fluorescence intensity (a.u.)
Value for TCTTGCTCTCCACAAACTTTCCATCACCACCTTTCGGGCGCGGAGTCACCTAGTGCAG under binding signal: 8180 fluorescence intensity (a.u.)
Value for GTTTCGTGGTGGTTGCTGGGCTTTTCGTTGGCGTGGGTGGCGGAGTCACCTAGTGCAG under binding signal: 11500 fluorescence intensity (a.u.)
